Measurements reported in PubChem BioAssay AID743454 (Peter MacCallum Cancer Centre, 2014)

- Screen: 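Search for knock-downs that restore vorinostat killing in resistant colon cancer cells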 (primary screen)
- System: human HCT116-VR colon cancer cells, selected for vorinostat resistance
- Reagents: siRNA pool against human genes, 40 nM siRNA pool
- Timing: vorinostat for 24 h, read-out about 72 h after transfection
- Challenge: vorinostat at 2.5 µM final
- Read-out: 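Two measures, CellTiter-Fluor viability and luminescent caspase 3/7 activity, each as fold change against same-plate mock wells, mean of duplicates, then screen-wide robust z-score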
- Reading the numbers: viability robust z-score: higher = more viable cells than screen typical; caspase robust z-score: higher = more caspase 3/7 activity than screen typical
- Call rule: 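a knock-down is a hit when classed RV1 or RV2 for lowered viability, or CA1 or CA2 for caspase activation; those lethal without drug were dropped; hits were retested singly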
This is a random part of about 18,000 reagents. 450 of all reagents (2.5%) count as active. 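Single biological run; no consistent viability z cut-off exists, so the class columns, not z-scores, define the calls.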 Unmarked entries are inactive.

The opening 8 records as a preview:
| target gene | viability hit class | caspase hit class | viability robust z-score | caspase robust z-score |
| --- | --- | --- | --- | --- |
| SHD | no change | no change | -0.86 | 0.92 |
| ENPEP | no change | no change | 0.5 | -0.5 |
| DACT2 | no change | no change | 0.19 | 0.17 |
| EIF2S2 | no change | no change | -4.27 | -0.6 |
| KIF13A | no change | no change | -0.24 | -0.78 |
| PAK6-AS1 | no change | no change | -0.54 | 0.37 |
| SLC26A11 | no change | no change | -3.21 | 2.42 |
| AGPAT5 | no change | no change | 0.76 | -0.36 |

The list itself, repeating the preview:
| target gene | viability hit class | caspase hit class | viability robust z-score | caspase robust z-score |
| --- | --- | --- | --- | --- |
| SHD | no change | no change | -0.86 | 0.92 |
| ENPEP | no change | no change | 0.5 | -0.5 |
| DACT2 | no change | no change | 0.19 | 0.17 |
| EIF2S2 | no change | no change | -4.27 | -0.6 |
| KIF13A | no change | no change | -0.24 | -0.78 |
| PAK6-AS1 | no change | no change | -0.54 | 0.37 |
| SLC26A11 | no change | no change | -3.21 | 2.42 |
| AGPAT5 | no change | no change | 0.76 | -0.36 |
| MPP7 | no change | no change | 1.04 | -0.53 |
| BRD3 | no change | no change | 0.77 | -1.23 |
| CACNA1G | no change | no change | 1.01 | 0.72 |
| TYMS | no change | no change | -0.88 | -0.62 |
| PADI2 | no change | no change | 1 | 2.29 |
| LGI3 | no change | no change | 0.25 | 0 |
| RARRES2 | no change | no change | 0.53 | 0.76 |
| ATCAY | no change | no change | 0.72 | 0.26 |
| TRIP12 | no change | no change | -0.13 | 0.62 |
| OR4D5 | no change | no change | 1.77 | -0.13 |
| PINX1 | no change | no change | -1.03 | 0.2 |
| EEF1A1 | no change | no change | -2.74 | -0.12 |
| STX1A | no change | no change | -0.5 | 0.62 |
| SH2D4B | no change | no change | -0.52 | -0.72 |
| ZNF767P | no change | no change | -1.84 | 0.96 |
| SORBS2 | no change | no change | 0.27 | -0.61 |
| PAIP2 | no change | no change | -0.52 | 0.64 |
| CXCL5 | no change | no change | -0.92 | -0.8 |
| SPCS1 | no change | no change | -1.77 | -0.59 |
| TBX22 | no change | no change | -2.04 | 0.15 |
| UBOX5 | no change | no change | -0.15 | -0.46 |
| HIGD2A | no change | no change | -3.64 | 0.09 |
| ECRG4 | no change | no change | 0.58 | -0.81 |
| C14orf181 (retired record) | no change | no change | 1.4 | 1.33 |
| HECTD2 | no change | no change | -0.65 | 1.55 |
| GIMAP4 | no change | no change | -0.22 | 0.54 |
| ZNF512 | no change | no change | 0.29 | -0.37 |
| OR52E2 | no change | no change | 0.06 | 0.23 |
| SRR | no change | no change | 1.04 | 0.43 |
| SMTNL2 | no change | no change | 0.26 | -0.54 |
| CREB3 | no change | no change | -0.86 | -0.1 |
| COL27A1 | no change | no change | 0.51 | -0.62 |
| C9orf78 | no change | no change | 1.43 | -0.52 |
| MRPL11 | no change | no change | -2.88 | 1.77 |
| CREB3L3 | no change | no change | -1.17 | 1 |
| PGBDF | no change | no change | -2.1 | 2.11 |
| RNF111 | no change | no change | 0.92 | -0.3 |
| CDC42BPB | no change | no change | 0.01 | -0.68 |
| SMAD2 | no change | no change | -0.82 | 1.36 |
| CT83 | no change | no change | 1.37 | -0.02 |
| PTCHD3 | no change | no change | -0.39 | -0.73 |
| ZSWIM3 | no change | no change | -1.6 | 1 |
| TGFBR2 | no change | no change | 0.08 | 2.12 |
| GAS2 | no change | no change | -0.86 | -1.02 |
| CMA1 | no change | no change | 0.68 | 1.19 |
| CCDC191 | no change | no change | -1.57 | 2.77 |
| SLC7A6OS | no change | no change | -1.9 | 1.05 |
| SPATA8 | no change | no change | -0.46 | -0.92 |
| COPS5 | no change | no change | -0.8 | 1.83 |
| KIAA0753 | no change | no change | 0.25 | -0.88 |
| RAB29 | no change (active) | CA1 (caspase activation) | -0.88 | 5.2 |
| FECH | no change | no change | -1.05 | -1.32 |
| MRGPRG | no change | no change | -1.05 | 3.02 |
| ARID3B | no change | no change | -1.72 | -0.17 |
| CPEB2 | no change | no change | -0.82 | -0.01 |
| WSCD1 | no change | no change | 0.38 | -0.68 |
| BRCA2 | no change | no change | 0.78 | 0.44 |
| BAAT | no change | no change | -0.62 | 1.66 |
| C1RL | no change (active) | CA2 (caspase activation) | -1.35 | 6.13 |
| PARP3 | no change | no change | -0.57 | 0.08 |
| PYCARD | no change | no change | 0.2 | -0.99 |
| AKIRIN1 | no change | no change | 0.4 | 0.56 |
| GSTM2 | no change | no change | -0.78 | -0.52 |
| FAM199X | no change | no change | 0.3 | -0.44 |
| POU3F1 | no change | no change | -0.68 | -0.8 |
